From US20120083522A1, “MODULATION OF INFLAMMATORY RESPONSES BY FACTOR XI” (Isis Pharmaceuitcals, inc., priority 2009, published 2012)
Some entries share one result that the patent states for a list of compounds. In the oligonucleotide strings, read from the 5' end, every base follows the letter of its sugar. An asterisk marks phosphorothioate; unmarked linkages are phosphodiester. Other units and linkages are bracketed, terminal groups are in braces. A string of capitals states the bases alone. e = 2'-O-(2-methoxyethyl) (MOE); [5mC] = 5-methylcytosine; d = 2'-deoxy (DNA)

Legend:
human Factor XI mRNA [1] = assay: Antisense inhibition in HepG2 cells by microwalk gapmers, 8,000 nM, electroporation (Example 14); assay type: cell-based; settings: HepG2, 8,000 nM, approximately 24 hours
Description: These microwalk gapmers were tested in vitro. Cultured HepG2 cells at a density of 20,000 cells per well were transfected using electroporation with 8,000 nM antisense oligonucleotide. After a treatment period of approximately 24 hours, RNA was isolated from the cells and Factor XI mRNA levels were measured by quantitative real-time PCR. Factor XI mRNA levels were adjusted according to total RNA content, as measured by RIBOGREEN. Results are presented as percent inhibition of Factor XI, relative to untreated control cells.
The chimeric antisense oligonucleotides in Table 51 were designed as 5-10-5 MOE, 5-8-5 and 6-8-6 MOE gapmers. The first two listed gapmers in Table 51 are the original gapmers (ISIS 416850 and ISIS 416858) from which ISIS 445493-445543 were designed via microwalk, and are designated by an asterisk. The 5-10-5 gapmers are 20 nucleotides in length, wherein the central gap segment is comprised of ten 2′-deoxynucleotides and is flanked on both sides (in the 5′ and 3′ directions) by wings comprising five nucleotides each. The 5-8-5 gapmers are 18 nucleotides in length, wherein the central gap segment is comprised of eight 2′-deoxynucleotides and is flanked on both sides (in the 5′ and 3′ directions) by wings comprising five nucleotides each. The 6-8-6 gapmers are 20 nucleotides in length, wherein the central gap segment is comprised of eight 2′-deoxynucleotides and is flanked on both sides (in the 5′ and 3′ directions) by wings comprising six nucleotides each. For each of the motifs (5-10-5, 5-8-5 and 6-8-6), each nucleotide in the 5′ wing segment and each nucleotide in the 3′ wing segment has a 2′-MOE modification. The internucleoside linkages throughout each gapmer are phosphorothioate (P═S) linkages. All cytidine residues throughout each gapmer are 5-methylcytidines. “Human Target start site” indicates the 5′-most nucleotide to which the gapmer is targeted in the human sequence. “Human Target stop site” indicates the 3′-most nucleotide to which the gapmer is targeted in the human sequence. Each gapmer listed in Table 51 is targeted to SEQ ID NO: 1 (GENBANK Accession No. NM_000128.3). Each gapmer is Table 51 is also fully cross-reactive with the rhesus monkey Factor XI gene sequence, designated herein as SEQ ID NO: 274 (exons 1-15 GENBANK Accession No. NW—001118167.1). ‘Rhesus monkey start site’ indicates the 5′-most nucleotide to which the gapmer is targeted in the rhesus monkey sequence. ‘Rhesus monkey stop site’ indicates the 3′-most nucleotide to which the gapmer is targeted to the rhesus monkey sequence.

human Factor XI mRNA [2] = assay: Antisense inhibition in HepG2 cells by microwalk gapmers, 75 nM, lipofectin (Example 3); assay type: cell-based; settings: HepG2, 75 nM, approximately 24 hours
Description: These gapmers were designed by creating gapmers shifted slightly upstream and downstream (i.e. “microwalk”) of the original gapmers from Table 3. Gapmers were also created with various motifs, e.g. 5-10-5 MOE, 3-14-3 MOE, and 2-13-5 MOE. These gapmers were tested in vitro. Cultured HepG2 cells at a density of 10,000 cells per well were transfected using lipofectin reagent with 75 nM antisense oligonucleotide. After a treatment period of approximately 24 hours, RNA was isolated from the cells and Factor XI mRNA levels were measured by quantitative real-time PCR. Factor XI mRNA levels were adjusted according to total RNA content, as measured by RIBOGREEN®. Results are presented as percent inhibition of Factor XI, relative to untreated control cells.
The chimeric antisense oligonucleotides in Table 4 were designed as 5-10-5 MOE, 3-14-3 MOE, and 2-13-5 MOE gapmers. The first listed gapmers in Table 4 are the original gapmers (see Table 3) from which the remaining gapmers were designed via microwalk and are designated by an asterisk. The 5-10-5 gapmers are 20 nucleotides in length, wherein the central gap segment is comprised of 10 2′-deoxynucleotides and is flanked on both sides (in the 5′ and 3′ directions) by wings comprising 5 nucleotides each. The 3-14-3 gapmers are 20 nucleotides in length, wherein the central gap segment is comprised of 14 2′-deoxynucleotides and is flanked on both sides (in the 5′ and 3′ directions) by wings comprising 3 nucleotides each. The 2-13-5 gapmers are 20 nucleotides in length, wherein the central gap segment is comprised of 13 2′-deoxynucleotides. The central gap is flanked on the 5′ end with a wing comprising 2 nucleotides and on the 3′ end with a wing comprising 5 nucleotides. For each of the motifs (5-10-5, 3-14-3, and 2-13-5), each nucleotide in the 5′ wing segment and each nucleotide in the 3′ wing segment has a 2′-MOE modification. The internucleoside linkages throughout each gapmer are phosphorothioate (P═S) linkages. All cytidine residues throughout each gapmer are 5-methylcytidines. “Target start site” indicates the 5′-most nucleotide to which the gapmer is targeted. “Target stop site” indicates the 3′-most nucleotide to which the gapmer is targeted. Each gapmer listed in Table 4 is targeted to SEQ ID NO: 1 (GENBANK Accession No. NM_000128.3).

Row | Substance | inhibition of Factor XI mRNA (thresholds stated in text, Table 51) (human Factor XI mRNA [1]) | inhibition of Factor XI mRNA (thresholds stated in text, Tables 4-8) (human Factor XI mRNA [2])
1 | 445517 (antisense eA*e[5mC]*eT*eG*eG*e[5mC]*dA*dG*d[5mC]*dG*dG*dA*d[5mC]*dG*eG*e[5mC]*eA*eT*eT*eG) [compound 445517] | at least 70% | –
2 | 445516 (antisense e[5mC]*eT*eG*eG*e[5mC]*eA*dG*d[5mC]*dG*dG*dA*d[5mC]*dG*dG*e[5mC]*eA*eT*eT*eG*eG) [compound 445516] | at least 70% | –
3 | 445539 (antisense e[5mC]*eA*eG*e[5mC]*eG*dG*dA*d[5mC]*dG*dG*d[5mC]*dA*dT*eT*eG*eG*eT*eG) [compound 445539] | at least 70% | –
4 | 445511 (antisense eA*eG*e[5mC]*eG*eG*eA*d[5mC]*dG*dG*d[5mC]*dA*dT*dT*dG*eG*eT*eG*e[5mC]*eA*e[5mC]) [compound 445511] | at least 70% | –
5 | 445540 (antisense eG*e[5mC]*eA*eG*e[5mC]*dG*dG*dA*d[5mC]*dG*dG*d[5mC]*dA*eT*eT*eG*eG*eT) [compound 445540] | at least 70% | –
6 | 445528 (antisense eA*eT*eT*eG*eG*dT*dG*d[5mC]*dA*d[5mC]*dA*dG*dT*eT*eT*e[5mC]*eT*eG) [compound 445528] | at least 70% | –
7 | 445512 (antisense e[5mC]*eA*eG*e[5mC]*eG*eG*dA*d[5mC]*dG*dG*d[5mC]*dA*dT*dT*eG*eG*eT*eG*e[5mC]*eA) [compound 445512] | at least 70% | –
8 | 445537 (antisense eG*e[5mC]*eG*eG*eA*d[5mC]*dG*dG*d[5mC]*dA*dT*dT*dG*eG*eT*eG*e[5mC]*eA) [compound 445537] | at least 70% | –
9 | 445527 (antisense eT*eT*eG*eG*eT*dG*d[5mC]*dA*d[5mC]*dA*dG*dT*dT*eT*e[5mC]*eT*eG*eG) [compound 445527] | at least 70% | –
10 | 445523 (antisense eT*eG*e[5mC]*eA*e[5mC]*dA*dG*dT*dT*dT*d[5mC]*dT*dG*eG*e[5mC]*eA*eG*eG) [compound 445523] | at least 70% | –
11 | 445515 (antisense eT*eG*eG*e[5mC]*eA*eG*d[5mC]*dG*dG*dA*d[5mC]*dG*dG*d[5mC]*eA*eT*eT*eG*eG*eT) [compound 445515] | at least 70% | –
12 | 417008 (antisense eG*eG*d[5mC]*dA*dT*dT*dG*dG*dT*dG*d[5mC]*dA*d[5mC]*dA*dG*eT*eT*eT*e[5mC]*eT) [compound 417008] | – | at least 80%
13 | 416990 (antisense eT*eG*dA*dG*dA*dT*dT*d[5mC]*dT*dT*dT*dG*dG*dG*d[5mC]*e[5mC]*eA*eT*eT*e[5mC]) [compound 416990] | – | at least 50%
14 | 416927 (antisense eT*eT*eG*dG*dT*dG*d[5mC]*dA*d[5mC]*dA*dG*dT*dT*dT*d[5mC]*dT*dG*eG*e[5mC]*eA) [compound 416927] | – | at least 80%
15 | 445518 (antisense eA*eG*eT*eT*eT*d[5mC]*dT*dG*dG*d[5mC]*dA*dG*dG*e[5mC]*e[5mC]*eT*e[5mC]*eG) [compound 445518] | at least 70% | –
16 | 416903 (antisense eG*eT*e[5mC]*dA*dT*d[5mC]*d[5mC]*dG*dT*dG*d[5mC]*dA*dT*d[5mC]*dT*dT*dT*e[5mC]*eT*eT) [compound 416903] | – | at least 80%
17 | 445499 (antisense TGGTGCACAGTTTCTGGCAG; 6-8-6 gapmer chemistry, chemistry not fully specified) [compound 445499] | at least 70% | –
18 | 416828 (antisense eT*eT*eA*eT*eG*d[5mC]*d[5mC]*d[5mC]*dT*dT*d[5mC]*dA*dT*dG*dT*e[5mC]*eT*eA*eG*eG) [compound 416828] | – | at least 80%
19 | 445543 (antisense e[5mC]*eT*eG*eG*e[5mC]*dA*dG*d[5mC]*dG*dG*dA*d[5mC]*dG*eG*e[5mC]*eA*eT*eT) [compound 445543] | at least 70% | –
20 | 417001 (antisense eG*eT*dG*d[5mC]*dA*d[5mC]*dA*dG*dT*dT*dT*d[5mC]*dT*dG*dG*e[5mC]*eA*eG*eG*e[5mC]) [compound 417001] | – | at least 80%
21 | 416811 (antisense e[5mC]*e[5mC]*eA*e[5mC]*eA*dT*dA*dA*dA*dT*dG*dT*d[5mC]*dT*dT*eT*eG*eT*eT*eG) [compound 416811] | – | at least 80%
22 | 416821 (antisense eT*e[5mC]*eA*eT*eG*dT*d[5mC]*dT*dA*dG*dG*dT*d[5mC]*d[5mC]*dA*e[5mC]*eA*eT*eA*eA) [compound 416821] | – | at least 80%
23 | 416939 (antisense e[5mC]*eA*eG*d[5mC]*dG*dG*dA*d[5mC]*dG*dG*d[5mC]*dA*dT*dT*dG*dG*dT*eG*e[5mC]*eA) [compound 416939] | – | at least 80%
24 | 416806 (antisense eA*eA*eA*eT*eG*dT*d[5mC]*dT*dT*dT*dG*dT*dT*dG*d[5mC]*eA*eA*eG*e[5mC]*eG) [compound 416806] | – | at least 80%
25 | 417009 (antisense e[5mC]*eG*dG*d[5mC]*dA*dT*dT*dG*dG*dT*dG*d[5mC]*dA*d[5mC]*dA*eG*eT*eT*eT*e[5mC]) [compound 417009] | – | at least 80%
26 | 445524 (antisense eG*eT*eG*e[5mC]*eA*d[5mC]*dA*dG*dT*dT*dT*d[5mC]*dT*eG*eG*e[5mC]*eA*eG) [compound 445524] | at least 70% | –
27 | 416837 (antisense e[5mC]*eA*eA*e[5mC]*e[5mC]*dG*dG*dG*dA*dT*dG*dA*dT*dG*dA*eG*eT*eG*e[5mC]*eA) [compound 416837] | – | at least 90%
